Test results: patent US20220081389A1, “AMIDE COMPOUNDS AND PREPARATION METHOD THEREFOR AND USE THEREOF” (CAC NANTONG CHEMICAL CO., LTD., priority 2019, published 2022)
Some results were stated once for a whole list of compounds, not compound by compound.

Experiments:
Assay type in all cases: in vivo
[1] = tested on: Spodoptera frugiperda; experiment: Insecticidal activity test against Spodoptera frugiperda (leaf dip, maize seedlings); conditions: 1 ppm, 3rd day after treatment
Method: (§1) Various kinds of pests were tested with the compounds of this invention. Unless otherwise specified, the preparation method of samples and definition of the mortality rate of the insects in the embodiments and this invention are as follows: the preparation method of samples is to weigh 10 mg of the compound and dissolve it in 1 mL DMF to prepare 10,000 ppm mother liquid, which is diluted to necessary concentration by 0.05% Tween-80 water, respectively. The mortality rate is the mortality rate of pests under the test concentration, whose calculating formula is: mortality rate (%)=Number of dead pests/total pests*100
The leaf dip method was used to assay the insecticidal activity. Cut above ground part of fresh maize seedlings (about 10 cm). Dip the maize seedlings into the solution prepared with compound of this invention for 10 seconds and dry them in a cool environment. Then cut the dry maize seedlings into 3-5 cm leaf sections and put 3 leaf sections into each petri dish. Put ten of 3th-instar larvae of Spodoptera frugiperda into each dish, which was repeated by 3 times. Then the dishes were placed in an illumination incubator and incubated with 14 hL: 10 hD illumination at 25° C. Symptoms were investigated on the 1st, 2nd and 3rd day after treatment, and the mortality was calculated.

[2] = tested on: Chilo suppressalis; experiment: Insecticidal activity test against Chilo suppressalis (rice stem dip); conditions: 1 ppm, 3rd day after treatment
Method: as §1
The rice was cultivated in a plastic pot with a diameter of 9 cm and a height of 10 cm. When the rice grew to 25 cm, the aerial part of robust and consistent rice seedlings was selectively cut. Their leaves were removed and their stems of about 8 cm were kept for use. Pour the solution prepared with compound of this invention into the Petri dish (about 40 mL) and dip the rice stems into the solution for 10 seconds. Take rice stems out and dry them in a cool environment. Put a wet cotton ball at the bottom of finger-like glass tube and 5 rice stems in each tube. Put 10 of 3rd-instar larvae of Chilo suppressa into each tube, which was repeated by 3 times. Seal the tubes with black cotton cloth and tighten them with rubber band. The tubes were placed in a illumination incubator at 28° C. and incubated in the dark (incubated without light). The dead number of Chilo suppressalis was investigated 3 days after treatment. The mortality was calculated.

[3] = tested on: Aphis craccivora; experiment: Insecticidal activity test against Aphis craccivora (broad bean leaf dip); conditions: 40 ppm, 3rd day after treatment
Method: as §1
Cut a single leaf of broad bean with stem and insert it into a glass jar filled with water (capacity of 20 ml). Five adult Aphis craccivoras were seeded onto each leaf, and covered with plastic cups with holes. The adult aphids were removed after 24 hours. Before the experiment, the base number was investigated and the single leaf with more than 15 nymphs aphids was selected for the experiment. Dip leaf of broad bean with nymphs aphids into the solution of test compound 10s, take out and dry them in a cool environment, 3 parallel repeats. Place the glass jars on the shelf of observation room and covered with plastic cups with holes. 20-25° C. with 14 hL: 10 hD illumination. The number of Aphis craccivora death and alive was investigated on the 3rd day after treatment, and the mortality was calculated.

[4] = tested on: Spodoptera litura; experiment: Insecticidal activity test against Spodoptera litura (leaf dip, cabbage leaf discs); conditions: 0.4 ppm, 3rd day after treatment
Method: as §1
The leaf dip method was used to assay the insecticidal activity. Healthy and pesticide-untreated cabbage leaves was selected to prepare 1 cm of leaf discs by diameter. Dip the leaf discs into the solution prepared with compound of this invention for 10 seconds and dry them in a cool […] environment. Then place them in 24-well plate with 3 discs per pore. Put 10 of Spodoptera litura into each pore, which was repeated by 3 times. The 24-well plate was placed in an illumination incubator and incubated with 14 hL: 10 hD illumination at 25° C. The dead number of Spodoptera litura was investigated on the 3rd day after treatment, and the mortality was calculated.

O=C(Nc1c(Br)cc(C(F)(C(F)(F)F)C(F)(F)F)cc1OC(F)F)c1cccc(N(CC2CC2)C(=O)c2ccc(C(F)(F)F)cc2)c1F [Compound 27]
≥ 90%: insecticidal activity (mortality of Spodoptera frugiperda) [1] | insecticidal activity (mortality of Chilo suppressalis) [2] | insecticidal activity (mortality of Aphis craccivora) [3] | insecticidal activity (mortality of Spodoptera litura) [4]

O=C(Nc1c(Br)cc(C(F)(C(F)(F)F)C(F)(F)F)cc1OC(F)F)c1cccc(N(CC2CC2)C(=O)c2ccc(Cl)cc2)c1F [Compound 44]
≥ 90%: insecticidal activity (mortality of Spodoptera frugiperda) [1] | insecticidal activity (mortality of Chilo suppressalis) [2] | insecticidal activity (mortality of Aphis craccivora) [3] | insecticidal activity (mortality of Spodoptera litura) [4]
